PubChem BioAssay AID1224826 – NIAID – 2016

Screen: 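Genes that change LPS-induced Tnf promoter activity in mouse macrophages when knocked down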 (primary screen)
System: RAW264.7 G9 macrophages from mouse bearing reporters for p65 (GFP) and the Tnf promoter (mCherry)
Knock-down reagent: siRNA pool against mouse genes, 100 nM
Timing: 16 h of LPS stimulation, after 2 days of siRNA transfection
Conditions: bacterial lipopolysaccharide (Salmonella minnesota R595), 10 ng/ml
Measurement: 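Nuclear mCherry signal of the Tnf promoter reporter measured by imaging after background removal, scaled to each plate median and turned into robust z-scores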
Reading the numbers: Tnf reporter robust z-score: higher = stronger Tnf promoter reporter signal after LPS
Rule for the call: 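a well counts as active at a score of -1.3 or below (Tlr4 knock-down control median) or above 3 (raised signal); controls and wells holding fewer than 50 cells are excluded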
Calls: active = Tnf reporter clearly lowered or raised; inactive = no clear change in Tnf reporter
This is an unselected part of about 17,000 deposited reagents. About 1,110 of all reagents (6.6%) count as active. 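Active means lowered or raised reporter signal; replicate intensities are raw and not normalised per plate.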 A number with no mark means an inactive call. Further read-outs or replicates are left out here.

gene symbol	Tnf reporter robust z-score	fewer than 50 cells in well
Nlrp2	-0.26	enough cells in well
Nacc1	-0.19	enough cells in well
Sars1	-0.56	enough cells in well
Dmp1	-0.68	enough cells in well
Polr1h	0.42	enough cells in well
Fnbp1l	0.95	enough cells in well
Gpr61	-0.36	enough cells in well
Gapt	-0.24	enough cells in well
Vamp8	0.07	enough cells in well
Pou2f1	0.72	enough cells in well
Arpp19	0.82	enough cells in well
Sec14l4	3.8 (active)	enough cells in well
Or2o1	-0.16	enough cells in well
Erap1	1.85	enough cells in well
Wdfy1	2.86	enough cells in well
Zfp628	-0.16	enough cells in well
Or2v1	-0.72	enough cells in well
C1qbp	1.42	enough cells in well
Klhl17	0.98	enough cells in well
Mageb1	1.19	enough cells in well
Sfrp2	0.25	enough cells in well
Ppfia2	-0.88	enough cells in well
Mapk8ip1	0.26	enough cells in well
Rpl37a	-1.15	enough cells in well
Or2t47	-0.86	enough cells in well
Rnf122	1.12	enough cells in well
Nfkbia	0.41	enough cells in well
Gad2	-0.07	enough cells in well
Cd9	-0.46	enough cells in well
Hmgxb4	-1.5 (active)	enough cells in well
Fhod1	1.26	enough cells in well
Adat2	-1.97 (active)	enough cells in well
Spag9	-0.02	enough cells in well
Raly	0.23	enough cells in well
Cntf	-0.9	enough cells in well
Klk1b16	1.2	enough cells in well
Dab2ip	-0.48	enough cells in well
Alcam	0.64	enough cells in well
Syngr3	-0.42	enough cells in well
Ccs	0.72	enough cells in well
Gab3	0.65	enough cells in well
Klhdc10	0.29	enough cells in well
Shmt1	0.74	enough cells in well
Tial1	-0.23	enough cells in well
Atp12a	-0.44	enough cells in well
Rrad	0.24	enough cells in well
Zfp593	-0.08	enough cells in well

A stretch taken from the entries so far:
gene symbol	Tnf reporter robust z-score	fewer than 50 cells in well
Sars1	-0.56	enough cells in well
Dmp1	-0.68	enough cells in well
Polr1h	0.42	enough cells in well
Fnbp1l	0.95	enough cells in well
Gpr61	-0.36	enough cells in well
Gapt	-0.24	enough cells in well
Vamp8	0.07	enough cells in well

The results go on.
gene symbol	Tnf reporter robust z-score	fewer than 50 cells in well
Or51af1	1.74	enough cells in well
Oas1b	-1.26	enough cells in well
Maco1	-0.54	enough cells in well
Ccl1	-0.8	enough cells in well
Gja5	-1.11	enough cells in well
Tctn3		fewer than 50 cells per well; well left out of calls
Gbe1	0.13	enough cells in well
Cnga1	-0.67	enough cells in well
Ica1l	-0.09	enough cells in well
Col2a1	0.15	enough cells in well
Zfp706		fewer than 50 cells per well; well left out of calls
Or8j3b	0.93	enough cells in well
Plxna4os2	-0.39	enough cells in well
Slc50a1		fewer than 50 cells per well; well left out of calls
Gtpbp8	0.38	enough cells in well
Lypd9	-0.69	enough cells in well
Socs2	0.12	enough cells in well
Vps35	4.27 (active)	enough cells in well
Ube2a		fewer than 50 cells per well; well left out of calls
Rhox3a		fewer than 50 cells per well; well left out of calls
Vmn1r231	-1.22	enough cells in well
Ifnar1	0.65	enough cells in well
Mlycd	1.79	enough cells in well
Niban2	0.45	enough cells in well
Gpn2	-0.19	enough cells in well
Usp16	-0.27	enough cells in well
Mmd2	0.21	enough cells in well
Sertad4		fewer than 50 cells per well; well left out of calls
